Experiments:
[1] = QPT-OMe-based bipolar static flow battery, charge/discharge cycling
Method: (§1) The acetonitrile mixture of QPT-OMe and TBA-TFSI made in Embodiment 1 is used as cathode and anode electrolytes (where the concentrations of QPT-OMe and TBA-TFSI are 0.025 M and 0.5 M, respectively), and a porous membrane Daramic AA-800 is used as a membrane and graphite carbon felt is used as a collector to form a static flow battery.
0.1 mL of electrolyte is injected into both the cathode and anode reservoirs of the battery, and the charging and discharging cycles are tested with a charging current density of 5 mA cm^−1 and a discharging current density of 5 mA cm^−1.

[2] = QPT-OMe bipolar static flow battery, polarity reversal test; conditions: after 500 cycles
Method: as §1
A polarity reversal test is performed by filling 0.1 mL of electrolyte into both the cathode and anode reservoirs of the battery with a charging current density of 5 mA cm^−1 and a discharging current density of 5 mA cm^−1. The polarity of the battery is reversed every 50 cycles, and the current is reversed 4 times before 300 cycles.

[3] = QPT-TEG-based bipolar static flow battery, charge/discharge cycling; conditions: 0.5 M QPT-TEG
Method: as §1, with “An” for “The”, “QPT-TEG” for “QPT-OMe”, “4” for “1”, “0.5” for “0.025”, “carbon” for “carbon felt”
0.1 mL of electrolyte is injected into both the cathode and anode reservoirs of the battery, and the charge and discharge cycles are tested with a charge current density of 5 mA cm^−1 and a discharge current density of 5 mA cm^−1.

COc1ccc2c(c1)c(=O)c1cccc3c1n2-c1ccccc1S3 [QPT-OMe]
decay rate ([1]; 900 cycles, 5 mA cm^−1): about 0.4 %0 per cycle
capacity retention ([1]; after 900 cycles, 5 mA cm^−1): about 63.5%
coulombic efficiency ([1]; after 900 cycles, 5 mA cm^−1): about 97%
energy efficiency ([1]; after 900 cycles, 5 mA cm^−1): ~84%
coulombic efficiency (CE) ([1]; current density 1 mA cm^−2): 70.0%
utilization rate ([1]; current density 1 mA cm^−2): 77.6%
coulombic efficiency (CE) ([1]; current density 2 mA cm^−2): 82.1%
utilization rate ([1]; current density 2 mA cm^−2): 86.3%
coulombic efficiency (CE) ([1]; current density 5 mA cm^−2): 90.6%
utilization rate ([1]; current density 5 mA cm^−2): 94.3%
coulombic efficiency (CE) ([1]; current density 10 mA cm^−2): 92.9%
utilization rate ([1]; current density 10 mA cm^−2): 97.6%
coulombic efficiency (CE) ([1]; current density 20 mA cm^−2): 92.8%
utilization rate ([1]; current density 20 mA cm^−2): 65.4%
capacity retention [2]: 56%
coulombic efficiency [2]: approximately 94%
energy efficiency [2]: ~86%

COCCOCCOCCOc1ccc2c(c1)c(=O)c1cccc3c1n2-c1ccccc1S3 [QPT-TEG]
utilization of active substance in the first cycle ([3]; 5 mA cm^−1): 74.6%
voltage plateau during discharge ([3]; 5 mA cm^−1): about 2.3 V
discharge capacity remained ([3]; after 200 cycles): 63%
